Here are results for 2 molecules from publication PMC2533704.

Results are given in words; binding and its absence hold for the method and conditions named. In cells and extracts the contact can be indirect. Some binding calls cover weakened binding; strength is not graded here. Tags and fused reporters may be left off the sequences shown.

For one experiment, the target named is T1, Csm4 (S. cerevisiae) (UniProt Q08955).
T1 sequence: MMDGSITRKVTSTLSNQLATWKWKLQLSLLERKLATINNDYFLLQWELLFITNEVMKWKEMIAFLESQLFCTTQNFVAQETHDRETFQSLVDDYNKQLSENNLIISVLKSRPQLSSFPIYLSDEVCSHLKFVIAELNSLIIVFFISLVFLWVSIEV
The experiment can be described thus: co-IP; meiotic cell lysates from NDJ1-HA diploid and untagged strain; IP with anti-HA probed with anti-Csm4, and reciprocal IP with anti-Csm4 probed with anti-HA; performed as described previously (ref. 5).

The next experiment addresses T2, Ndj1-HA (S. cerevisiae) (UniProt Q12366).
T2 sequence: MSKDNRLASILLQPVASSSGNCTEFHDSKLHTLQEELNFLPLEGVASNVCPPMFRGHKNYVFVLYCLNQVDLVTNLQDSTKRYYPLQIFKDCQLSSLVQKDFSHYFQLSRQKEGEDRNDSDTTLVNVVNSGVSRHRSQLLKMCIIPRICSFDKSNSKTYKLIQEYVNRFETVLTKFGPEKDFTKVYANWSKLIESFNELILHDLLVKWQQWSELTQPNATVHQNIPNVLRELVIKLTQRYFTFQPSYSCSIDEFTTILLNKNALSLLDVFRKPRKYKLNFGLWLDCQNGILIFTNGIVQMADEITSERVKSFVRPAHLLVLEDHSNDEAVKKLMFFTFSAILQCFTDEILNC
The description is as above.

B1: Ndj1-HA (protein, UniProt Q12366 1-352)
chain: MSKDNRLASILLQPVASSSGNCTEFHDSKLHTLQEELNFLPLEGVASNVCPPMFRGHKNYVFVLYCLNQVDLVTNLQDSTKRYYPLQIFKDCQLSSLVQKDFSHYFQLSRQKEGEDRNDSDTTLVNVVNSGVSRHRSQLLKMCIIPRICSFDKSNSKTYKLIQEYVNRFETVLTKFGPEKDFTKVYANWSKLIESFNELILHDLLVKWQQWSELTQPNATVHQNIPNVLRELVIKLTQRYFTFQPSYSCSIDEFTTILLNKNALSLLDVFRKPRKYKLNFGLWLDCQNGILIFTNGIVQMADEITSERVKSFVRPAHLLVLEDHSNDEAVKKLMFFTFSAILQCFTDEILNC
As for B1, the binding entry with Csm4 (S. cerevisiae) is recorded as “binds”.

B2: Csm4 (protein, UniProt Q08955 1-156)
chain: MMDGSITRKVTSTLSNQLATWKWKLQLSLLERKLATINNDYFLLQWELLFITNEVMKWKEMIAFLESQLFCTTQNFVAQETHDRETFQSLVDDYNKQLSENNLIISVLKSRPQLSSFPIYLSDEVCSHLKFVIAELNSLIIVFFISLVFLWVSIEV
On to B2, for which, in the experiment with Ndj1-HA (S. cerevisiae), the binding result is “binds”.
